The source of these data is article doi:10.1101/2023.06.06.543836.

Chains of the proteins cited; added tags and fusions are not shown. Residues count along the entry.
UniProt P70658: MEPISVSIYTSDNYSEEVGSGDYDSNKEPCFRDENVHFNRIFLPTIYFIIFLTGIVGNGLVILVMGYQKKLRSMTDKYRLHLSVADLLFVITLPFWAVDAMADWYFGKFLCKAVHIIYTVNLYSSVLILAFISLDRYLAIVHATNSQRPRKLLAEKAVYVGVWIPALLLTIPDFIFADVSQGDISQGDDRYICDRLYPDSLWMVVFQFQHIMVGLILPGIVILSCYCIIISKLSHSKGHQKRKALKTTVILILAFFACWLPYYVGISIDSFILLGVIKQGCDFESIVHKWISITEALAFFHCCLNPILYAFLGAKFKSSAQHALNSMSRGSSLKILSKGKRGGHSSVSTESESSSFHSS
UniProt P40224, residues 22-93: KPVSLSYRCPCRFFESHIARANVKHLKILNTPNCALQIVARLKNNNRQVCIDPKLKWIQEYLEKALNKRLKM
UniProt P63158: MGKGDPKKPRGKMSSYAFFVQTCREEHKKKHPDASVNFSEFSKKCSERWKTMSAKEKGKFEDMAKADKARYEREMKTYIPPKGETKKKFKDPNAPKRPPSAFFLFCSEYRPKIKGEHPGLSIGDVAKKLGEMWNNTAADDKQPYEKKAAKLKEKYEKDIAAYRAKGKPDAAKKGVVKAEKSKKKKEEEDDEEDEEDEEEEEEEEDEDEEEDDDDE

In assay [1] the target is CXCR4 receptor on AB1 cells (mouse (endogenous in AB1)) (UniProt P70658). Nature of the assay: proximity ligation.
In assay [2] the target is CXCL12 on the surface of AB1 cells (mouse (endogenous in AB1)) (UniProt P40224). Nature of the assay: proximity ligation.

These are yes or no findings as the source states them, for the method shown. Binding seen in cells or lysates may run through a third protein. Some entries that bind do so weakly or less than the wild type.

As for “HMGB1•CXCL12 heterocomplex on the surface of AB1 cells (from UniProt P63158 1-215; P40224 22-93)”, in assay [1], the binding entry is “binds”.

“HMGB1 on the surface of AB1 cells (from UniProt P63158 1-215)”: the binding result in assay [2] is listed as “binds”.
